Here are results for 69 compounds from PubChem BioAssay AID1347422 (Sanford-Burnham Center for Chemical Genomics, 2020).

Protein sequences, listed by entry. Tags and fused reporters are not part of them. Lines headed by an entry give the natural chain unless they say otherwise; changes in a name come on top.
UniProt O00391: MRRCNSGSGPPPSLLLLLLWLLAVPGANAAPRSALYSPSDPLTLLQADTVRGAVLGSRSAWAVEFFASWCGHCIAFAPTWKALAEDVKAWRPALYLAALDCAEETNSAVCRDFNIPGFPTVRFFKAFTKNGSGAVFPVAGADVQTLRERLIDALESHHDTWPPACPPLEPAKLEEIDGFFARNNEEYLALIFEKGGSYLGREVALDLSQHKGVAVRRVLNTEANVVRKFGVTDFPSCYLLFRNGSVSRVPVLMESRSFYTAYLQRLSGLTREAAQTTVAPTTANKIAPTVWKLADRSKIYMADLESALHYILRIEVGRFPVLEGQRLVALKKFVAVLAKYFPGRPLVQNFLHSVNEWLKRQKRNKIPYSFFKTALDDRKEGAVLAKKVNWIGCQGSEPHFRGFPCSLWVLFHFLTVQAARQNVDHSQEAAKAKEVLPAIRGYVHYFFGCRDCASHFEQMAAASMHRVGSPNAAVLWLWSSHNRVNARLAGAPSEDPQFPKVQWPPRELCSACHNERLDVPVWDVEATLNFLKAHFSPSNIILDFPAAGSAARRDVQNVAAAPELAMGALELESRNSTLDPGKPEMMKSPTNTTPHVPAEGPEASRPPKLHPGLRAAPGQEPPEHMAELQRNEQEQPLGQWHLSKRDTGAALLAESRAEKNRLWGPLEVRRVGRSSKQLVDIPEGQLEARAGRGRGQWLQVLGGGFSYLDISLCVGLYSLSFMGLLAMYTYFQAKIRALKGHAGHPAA

In all, about 1,000 compounds were measured (“thermal shift dTm”: median about 0.19, highest 2% from about 1.7 on). The list shows a part of the results. Active and inactive are the calls of the source.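 How the source made its calls: active means mean rise in melting temperature of at least 1 degC over same-plate control wells; inactive means below that, where a call was filed.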

The target in the experiment is Sulfhydryl oxidase 1 (Homo sapiens) (UniProt O00391). Kind of experiment: ligand-induced melting shift of human QSOX1 – biophysical, protein thermal shift, single concentration, QSOX1 inhibitor project, confirmation (AID 1347422).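 Further: dTm is compound Tm minus mean Tm of DMSO-only wells on that plate.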 Particulars: recombinant hQSOX1 thermal shift, Sypro Orange, at 25 µM, stronger effect = higher value.
As for `CCOc1cc(S(=O)(=O)NC(C)c2ccccc2)ccc1Br` (centres undefined), the thermal shift dTm is inactive: -22.5 °C.

As for `CCc1c(C(=O)Nc2ccc3[nH]ncc3c2)csc1C`, the thermal shift dTm is 0.29 °C.

As for `CCC(=O)Oc1ccc(/C=C/c2ccc3ccccc3n2)cc1`, the thermal shift dTm is 0.11 °C.

Regarding `Cc1ccc(S(=O)(=O)Nc2ccc(C(=O)Nc3cccnc3)cc2)cc1`, the thermal shift dTm turned out to be 0.23 °C.

Turning to `O=C(CCc1ccccc1)Nc1cccc(-c2nc3ccccc3s2)c1`, the thermal shift dTm turned out to be 0.59 °C.

For the compound `O=C(Nc1cccc(OCC2CCCO2)c1)c1cccs1` (centres undefined), the thermal shift dTm was 0.09 °C.

Take `OCc1cn(-c2ccccc2)nc1-c1cccc(Br)c1`: the thermal shift dTm was inactive: -0.13 °C.

As for `CCC(=O)Oc1ccc(-c2nc3cc(Cl)ccc3c(=O)o2)cc1`, the thermal shift dTm was active: 1.23 °C.

In the case of `NC(=O)c1cn(-c2ccccc2)nc1-c1ccc(-c2ccccc2)cc1`, the thermal shift dTm amounted to 0.07 °C.

In the case of `COC(=O)c1ccc(Nc2nnc(-c3ccc(C)c(S(N)(=O)=O)c3)c3ccccc23)cc1`, the thermal shift dTm amounted to 0.15 °C.

Take `Nc1ccc(Br)cc1-c1nnc(CCc2ccccc2)o1`: the thermal shift dTm amounted to 0.34 °C.

As for `COc1cc(NC(=O)Nc2cccc(C)c2)cc(OC)c1OC`, the thermal shift dTm is 0.32 °C.

Take `O=C(Nc1nccs1)c1cccc(NC(=O)c2cc3ccccc3o2)c1`: the thermal shift dTm was active: 1.07 °C.

`CC(=O)Nc1ccc(-c2nnc(-c3cccc(C)c3)o2)cc1`: the thermal shift dTm is 0.75 °C.

With `COc1ccccc1CCNC(=S)Nc1ccc(S(N)(=O)=O)cc1`, the thermal shift dTm is active: 1.21 °C.

On to `CC(C)(C)NC(=O)c1ccc(NC(=O)c2cccc(Cl)c2)cc1`, for which the thermal shift dTm was 0.37 °C.

For the compound `CCCCOc1ccc(/C=C/C(=O)NC(C)c2ccccc2)cc1` (centres undefined), the thermal shift dTm was found to be 0.35 °C.

In the case of `C=Cc1cccc(NC(=O)c2ccc(OC)cc2)c1`, the thermal shift dTm was 0.2 °C.

On to `Cc1ccnc(SCc2cc(=O)c3c(=O)n(-c4ccccc4)[nH]c3[nH]2)n1`, for which the thermal shift dTm came out at 0.19 °C.

Consider `O=S(=O)(NCc1nc(-c2cccs2)no1)c1ccc2ccccc2c1`, for which the thermal shift dTm was inactive: -0.03 °C.

With `O=C(Nc1cccc(O)c1)c1cc(S(=O)(=O)N2CCOCC2)cs1`, the thermal shift dTm was determined as 0.23 °C.

For the compound `CNS(=O)(=O)c1cc(-c2ccc(Nc3ccc(OC)cc3)nn2)ccc1C`, the thermal shift dTm is active: 1.23 °C.

For `Nc1c(S(=O)(=O)Cc2ccccc2)sc2nc3c(cc12)CCCC3`, the thermal shift dTm was determined as 0.15 °C.

`O=C(NCCO)Nc1ccc(Cl)c(Cl)c1`: the thermal shift dTm is inactive: 0 °C.

Take `Cc1sc(NC(=O)Cc2ccc(Cl)cc2)nc1-c1ccccc1`: the thermal shift dTm came to 0.21 °C.

Consider `CC(=O)Nc1cccc(C(=O)Nc2ccc(Cl)cc2)c1`, for which the thermal shift dTm was inactive: -7.43 °C.

In the case of `Cc1ccc(S(=O)(=O)Nc2ccc(-c3cn4ccsc4n3)cc2)cc1`, the thermal shift dTm is active: 1.36 °C.

Regarding `COc1ccc(-c2nc(-c3cccs3)c(-c3cccs3)[nH]2)cc1`, the thermal shift dTm was found to be 0.25 °C.

`CC(Sc1nc2c(c(=O)[nH]1)CCCC2)C(=O)Nc1ccc(Br)cc1` (centres undefined): the thermal shift dTm was found to be 0.29 °C.

For `O=C(CCC1CCCN(C/C=C/c2ccc(F)cc2)C1)N1CCCC1` (centres undefined), the thermal shift dTm was 0.18 °C.

As to `CCN(Cc1nc(-c2ccccc2C)oc1C)CC1CCCO1` (centres undefined), the thermal shift dTm was found to be 0.09 °C.

As to `CCOC(=O)c1ccc(NC(=O)Nc2ccccc2)c(C)c1`, the thermal shift dTm was found to be 0.65 °C.

In the case of `Cc1cccc(-c2noc(CNC(=O)c3ccc4ccccc4c3)n2)c1`, the thermal shift dTm is inactive: -0.03 °C.

In the case of `O=C(Cn1c(=O)n(-c2ccc(Cl)cc2)c(=O)c2ccccc21)Nc1ccccc1`, the thermal shift dTm was found to be 0.15 °C.

For `C=CCN1C(=O)c2[nH]nc(-c3cc(C)c(C)cc3O)c2C1c1ccccc1F` (centres undefined), the thermal shift dTm was determined as 0.02 °C.

For the compound `COCCN(CC1CCN(Cc2ccccc2OC)CC1)C(=O)C1CCOCC1`, the thermal shift dTm was found to be 0.19 °C.

Regarding `NC(=O)c1ccc(-c2cccc(-c3ccn[nH]3)c2)s1`, the thermal shift dTm worked out at 0.18 °C.

`Cc1ccccc1OCC(=O)Nc1ccc2[nH]ncc2c1`: the thermal shift dTm was inactive: 0 °C.

For `C(=C\c1nc2ccccc2n1Cc1cccc2ccccc12)/c1ccco1`, the thermal shift dTm turned out to be 0.25 °C.

`O=C(Nc1nccs1)c1ccc(-c2cccc(Cl)c2Cl)o1`: the thermal shift dTm amounted to 0.19 °C.

As to `N#Cc1nc(/C=C/c2cccs2)oc1NCCc1ccccc1`, the thermal shift dTm is inactive: -37.7 °C.

In the case of `COc1ccc(CCNC2=NC(c3ccc(F)cc3F)=[C+]S2)cc1OC`, the thermal shift dTm was inactive: -0.13 °C.

On to `CCCC(=O)NC(c1ccccc1OC)c1c(OC(=O)COc2ccccc2)ccc2ccccc12` (centres undefined), for which the thermal shift dTm is inactive: -0.13 °C.

Consider `CC(=O)Nc1ccc(NC(=O)c2ccc(NS(C)(=O)=O)cc2)cc1`, for which the thermal shift dTm was found to be 0.33 °C.

As to `C/C=C/c1c(F)c(F)c(Oc2cccc(NC(C)=O)c2)c(F)c1F`, the thermal shift dTm amounted to 0.63 °C.

Turning to `Cc1ccc(C(NC(=O)C(C)C)c2c(O)ccc3ccccc23)cc1` (centres undefined), the thermal shift dTm was found to be 0.01 °C.

With `Cc1ccccc1NS(=O)(=O)c1ccc2c3c(cccc13)C(=O)N2C`, the thermal shift dTm worked out at 0.14 °C.

For the compound `Nc1nc(/C=C/c2cccs2)nc(-c2ccccc2O)n1`, the thermal shift dTm was 0.83 °C.

Turning to `C=CCSC1=N/C(=C\c2ccc(-c3cccc(Cl)c3)o2)C(=O)S1`, the thermal shift dTm is 0.63 °C.

`CCCc1cc(C(N)=O)c(NC(=O)c2sc3ccccc3c2Cl)s1`: the thermal shift dTm was found to be 0.01 °C.

Consider `N/C(=N\OC(=O)c1ccc2c(c1)OCO2)c1ccc(Cl)cc1`, for which the thermal shift dTm came out at 0.3 °C.

Turning to `C=CCOc1cccc(NC(=O)COc2ccccc2)c1`, the thermal shift dTm stood at 0.23 °C.

On to `CC(C)N(Cc1ccccc1)C(=O)/C=C/c1ccc(Cl)cc1`, for which the thermal shift dTm turned out to be 0.72 °C.

Take `CC(=O)Nc1cccc(NC(=O)c2cccc(NC(=O)c3ccco3)c2)c1`: the thermal shift dTm amounted to 0.37 °C.

Take `CCSC1=N/C(=C\c2ccc(-c3ccc(Cl)cc3)o2)C(=O)S1`: the thermal shift dTm was 0.34 °C.

As for `COc1ccc2nc(NC(=O)c3ccc(C)o3)sc2c1`, the thermal shift dTm worked out at 0.04 °C.

Turning to `CCc1sc(NC(=O)Cc2ccc(F)cc2)nc1-c1ccccc1`, the thermal shift dTm was determined as 0.17 °C.

Turning to `COc1cccc(-c2nn(-c3ccccc3)cc2CN2CCCN(C(C)=O)CC2)c1`, the thermal shift dTm amounted to 0.09 °C.

With `COc1ccc(Cl)cc1NC(=O)NNS(=O)(=O)c1ccc2ccccc2c1`, the thermal shift dTm was determined as 0.34 °C.

In the case of `Nc1ccc(-c2cccc(-c3ccn[nH]3)c2)cc1F`, the thermal shift dTm came to 0.18 °C.

In the case of `Oc1ccc(Nc2ncnc3ccc(Br)cc23)cc1`, the thermal shift dTm is inactive: -0.08 °C.

For `COc1ccc(Cl)cc1Nc1nc(-c2ccccn2)cs1`, the thermal shift dTm worked out at 0.1 °C.

In the case of `O=C1CC(CSc2nnnn2-c2ccccc2)=NN1c1nc2ccccc2[nH]1`, the thermal shift dTm amounted to 0.43 °C.

With `CCCCOc1ccc(C(=O)NCC2(c3ccccc3)CCCC2)cc1OC`, the thermal shift dTm is inactive: -0.03 °C.

With `COC(=O)c1ccc(NC(=O)c2ccc(-n3nncc3C)cc2)cc1`, the thermal shift dTm is inactive: -0.1 °C.

With `O=C(Nc1ccc(-c2noc(-c3cccs3)n2)cc1)c1ccccc1F`, the thermal shift dTm was 0.05 °C.

Regarding `O=C(Nc1ccc(NC(=O)C(Cl)Cl)cc1)C(Cl)Cl`, the thermal shift dTm was 0.4 °C.

As for `COc1ccc(NC(=O)NCCc2ccc(Cl)cc2)cc1OC`, the thermal shift dTm was inactive: -0.04 °C.

Turning to `Cc1cccc(OCC(=O)Nc2cccc(-c3nnc(-c4ccccc4)o3)c2)c1`, the thermal shift dTm is 0.68 °C.
